This passage reports binding results from PMC4965873.

Amino acid sequences for entries named in this document (tags omitted).
UniProt Q3TTA7: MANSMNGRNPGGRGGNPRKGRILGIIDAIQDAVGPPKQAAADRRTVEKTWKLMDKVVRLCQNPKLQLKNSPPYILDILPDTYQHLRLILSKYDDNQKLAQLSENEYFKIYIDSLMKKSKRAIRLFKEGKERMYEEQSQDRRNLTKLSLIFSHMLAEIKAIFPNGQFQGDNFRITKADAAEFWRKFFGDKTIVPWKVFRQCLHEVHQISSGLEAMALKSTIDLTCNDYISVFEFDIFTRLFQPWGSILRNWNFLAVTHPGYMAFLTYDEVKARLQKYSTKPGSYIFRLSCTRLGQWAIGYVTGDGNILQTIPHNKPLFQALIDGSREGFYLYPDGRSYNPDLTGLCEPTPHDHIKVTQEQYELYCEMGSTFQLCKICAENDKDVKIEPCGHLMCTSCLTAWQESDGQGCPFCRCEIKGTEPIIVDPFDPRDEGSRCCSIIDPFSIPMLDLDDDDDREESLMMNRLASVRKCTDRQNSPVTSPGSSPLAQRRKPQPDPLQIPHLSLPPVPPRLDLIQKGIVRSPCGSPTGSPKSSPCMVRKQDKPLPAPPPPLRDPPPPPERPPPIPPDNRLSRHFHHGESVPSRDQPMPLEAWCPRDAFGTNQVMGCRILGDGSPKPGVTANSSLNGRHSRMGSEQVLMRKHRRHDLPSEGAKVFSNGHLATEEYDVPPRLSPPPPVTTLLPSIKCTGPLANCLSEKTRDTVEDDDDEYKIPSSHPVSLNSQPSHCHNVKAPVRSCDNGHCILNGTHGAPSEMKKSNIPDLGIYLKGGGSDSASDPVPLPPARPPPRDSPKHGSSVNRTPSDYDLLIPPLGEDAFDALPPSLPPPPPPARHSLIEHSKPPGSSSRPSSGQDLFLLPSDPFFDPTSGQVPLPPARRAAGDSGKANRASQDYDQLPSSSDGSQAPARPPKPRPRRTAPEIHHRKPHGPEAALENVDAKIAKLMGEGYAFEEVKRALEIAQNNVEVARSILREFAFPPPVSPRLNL

One assay concerns the target CBLB-OST (mouse) (UniProt Q3TTA7). The experiment in a line: affinity purification with mass spectrometry; CBL-OST or CBLB-OST captured on Strep-Tactin Sepharose (1.5 h, 4°C) from postnuclear lysates (n-dodecyl-β-maltoside) of short-term expanded mouse CD4+ T cells, unstimulated or 30, 120, 300, 600 s after anti-CD3 + anti-CD4 cross-linking; eluted with 2.5 mM D-biotin; label-free LC-MS/MS against wild-type cells as control.

The target in the next assay is CBL-OST (mouse) (UniProt P22682). The assay is described as above.

No constants are given. Whether binding was seen depends on the method and setting. Binding seen in cells or lysates may run through a third protein. A yes stands for co-enrichment or nearness to the bait. Other partners may have been found. For some of these results: A no says only that the protein was not detected with the bait.

B1: ANKRD13A (protein, UniProt Q80UP5 1-588)
chain: MSSARDTSSRFPLHLLVWNNDYEQLEKELRDQNAEALDPRGRTLLHLAVSLGHLESARVLLRHKADVTKENGQGWTVLHEAVSTGDPEMVYTVLQHRDYHNTSMALEGVPELLHKILEAPDFYVQMKWEFTSWVPLVSRICPNDVCRIWKSGAKLRVDITLLGFENMSWIRGRRSFIFKGGDNWAELMEVNHDDRVVTTEHFDLSQEMERLTLDLMKPKSREVERRLTSPVINTSLDTKNVAFERTKSGFWGWRTDKAEVVNGYEAKVYSVNNVSVITRIRTEHLTEEEKKRYKEDRNPLESLLGTVEHQFGAQGDLATECATVNNPTAITPDEYFDEDFDLKDRDIGRPKELTIRTQKFKATLWMCEEFPLSLVEQVIPIIDLMARTSAHFARLRDFIKLDFPPGFPVKIEIPLFHVLNARITFGNVNGCSTADESQGVEGTPAEAVSEATNFEVDQSVFEIPESYHIQDNGRNVHLQDEDYEIMQFAIQQSLLESSRSQDLSGPASNGGVSHTHSYEAQYERAIQESLLTNMEGRCPGGLSESSRFDSDLQLAMELSAKELAERELRLQEEEAELQQVLQLSLTEK
For the molecule B1, the binding result with CBLB-OST (mouse) is listed as “binds”.

B2: UBASH3A (protein, UniProt Q3V3E1 1-624)
chain: MAAGETQLYAKVSNKLKGRSTPSLLDPLLAMGFPTHTALKALAATGRKTAEAAADWLHGHCNDPSLDDPIPQEYALFLCPTGPLLEKLQEFWRESRRQCAKNRAHEVFPHVTLCDFFTCEDQKVECLYEALRRAGDRILGSFPTLVPLVLHSSISYLGFFINDSPADAIREFAMAFATEAAVLADCTIKPCTKQLHLTLAHKFYPHHQRTLEQLAKAIQPSHSCQWTAALYSRDMRFVHYQTLKALFQYKPQNADELMLSAGDYIFVDPTQQEEASEGWAIGISHRTGCRGFLPENYTERANEADTWVKHRTYTFNLAMDLNSRKDFEASCRGNGEPHTPSMSKSVSSIQALQATISRRGILVVRHGERVDQVFGKSWLQQCTTADGKYYRPDLNFPRSLPRRSNGIKDFENDPPLSSCGIFQARLAGEALLDSGVRVTAVFASPALRCVQTAKHILEELKLEKKLKIRVEPGIFEWMKWEASKATLTFLTLEELKEANFNVDLDYRPALPRCSLMPAESYDQYVERCAVSMGQIINTCPQDMGITLIVSHSSALDSCTRPLLGLPPRECGDFAQLVRKIPSLGMCFCEENREDGKWDLVNPPVKTLTHGANSVFNWRNWISSN
Consider B2, for which the binding result with CBL-OST (mouse) and with CBLB-OST (mouse) was “binds” throughout.

B3: LAT (protein, UniProt O54957 1-242)
chain: MEADALSPVGLGLLLLPFLVTLLAALCVRCRELPVSYDSTSTESLYPRSILIKPPQITVPRTPAVSYPLVTSFPPLRQPDLLPIPRSPQPLGGSHRMPSSQQNSDDANSVASYENQEPACKNVDADEDEDDYPNGYLVVLPDSSPAAVPVVSSAPVPSNPDLGDSAFSVESCEDYVNVPESEESAEASLDGSREYVNVSPEQQPVTRAELASVNSQEVEDEGEEEGVDGEEAPDYENLQELN
In the case of B3, the binding entry is “no binding” with CBL-OST (mouse) and “binds” with CBLB-OST (mouse).

B4: EPS15L1 (protein, UniProt Q60902 1-907)
chain: MAAPLVPLSQQIPGGNPLYESYYKQVDPAYTGRVGASEAALFLKKSGLSDIILGKIWDLADPEGKGFLDKQGFYVALRLVACAQSGHEVTLSSLSLTMPPPKFHDTSSPLMATQSSAETHWAVRVEEKAKFDGIFESLLPVNGLLSGDKVKPVLMNSKLPLDVLGRVWDLSDIDKDGHLDRDEFAVAMHLVYRALEKEPVPSILPPPLIPPSKRKKTVFAGAVPVLPASPPPKDSLRSTPSHGSVSSLNSTGSLSPKHSVKQPPVAWVVPVADKMRFDEIFLKTDLDLDGYVSGQEVKEIFMHSGLTQNLLAHIWALADTRQTGKLSKEQFALAMYFIQQKVSKGIDPPQVLSPDMVPPSERGTPIPDSSSTLASGEFTGVKELDDISQEIAQLQREKYSLEQDIREKEEAIRQKTSEVQELQNDLDRETSSLQELEAQKQDAQDRLDEMDQQKAKLRDMLSDVRQKCQDETQTISSLKTQIQSQESDLKSQEDDLNRAKSELNRLQQEETQLEQSIQAGRAQLETILRSLKCTQDDINQARSKLSQLQESHLEAHRSLEQYDQVPDGVSGTSLPDLATLNEGILLAERGGFGAMDDPFKNKALLFSNNSQELHPDPFQAEDPFKSDPFKGADPFKGDPFQSDPFSEQQTAATDPFGGDPFKESDPFHSSSSDDFFKKQTKNDPFTSDPFTKNPSLPSKLDPFESSDPFSSSSISSKGSDPFGTLDPFGSSSFSSAEGFADFSQMSKPPPSGPFSSSLGGTGFSDDPFKSKQDTPALPPKKPAPPRPKPPSGQSTPVSQLGSSDFPESPDPFQPLGADSGDPFQNKKGFGDPFSGKDPFAPSSSAKPPKTSSSGFADFTSFGNEEQQLAWAKRESEKAEQERLARLRRQEQEDLELAIALSKADMPA
As for B4, the binding result with CBL-OST (mouse) and in the assay with CBLB-OST (mouse) was “binds” throughout.

B5: CD5 (receptor, UniProt P13379 24-494)
chain: QSGRGGLDIQVMLSGSNSKCQGQVEIQMENKWKTVCSSSWRLSQDHSKNAQQASAVCKQLRCGDPLALGPFPSLNRPQNQVFCQGSPWSISNCNNTSSQDQCLPLSLICLEPQRTTPPPTTTPPTTVPEPTAPPRLQLVPGHEGLRCTGVVEFYNGSWGGTILYKAKDRPLGLGNLICKSLQCGSFLTHLSGTEAAGTPAPAELRDPRPLPIRWEAPNGSCVSLQQCFQKTTAQEGGQALTVICSDFQPKVQSRLVGGSSVCEGIAEVRQRSQWEALCDSSAARGRGRWEELCREQQCGDLISFHTVDADKTSPGFLCAQEKLSQCYHLQKKKHCNKRVFVTCQDPNPAGLAPGTVASIILTLVLLVVLLAMCGPLVYKKLVKKFRQKKQRQWIGPTGVNQNMSFHRSHTATVRSQVENPTASHVDNEYSQPPRNSHLSAYPALEGALHRSSTQPDNSSDSDYDLQVAQRL
As to B5, the binding entry with CBL-OST (mouse) and with CBLB-OST (mouse) was “binds” throughout.

B6: GRAP2 (protein, UniProt O89100 1-322)
chain: MEATAKFDFMASGEDELSFRTGDILKILSNQEEWLKAELGSQEGYVPKNFIDIEFPEWFHEGLSRHQAENLLMGKDIGFFIIRASQSSPGDFSISVRHEDDVQHFKVMRDTKGNYFLWTEKFPSLNKLVDYYRTTSISKQKQVFLRDGTQDQGHRGNSLDRRSQGGPHPSGTVGEEIRPSVNRKLSDHLPLGPQQFHPHQQPSPQFTPGPQPPQQQRYLQHFHQDRRGGSLDINDGHCGLGSEVNATLMHRRHTDPVQLQAAGRVRWARALYDFEALEEDELGFRSGEVVEVLDSSNPSWWTGRLHNKLGLFPANYVAPMMR
In the case of B6, the binding entry with CBL-OST (mouse) and with CBLB-OST (mouse) was “binds” in each case.

B7: LAX1 (protein, UniProt Q8BHB3 1-407)
chain: MYSTPAPPEVTRRNSEPSTRQGTLGSLQGEKGQIIFPGFVVLLTIILVIIAACILWSWKKQKKRPVPYFQVAPSLTLPPPRHRAKNIYDFLPRQQTELGRHQLSGFSTESLLSRASDSPEPEAPQANGSLQMHRVSVHTVEYSVNIYDNGTVPQMCRHLASSTHHVCVRTSRSNPSISSKESNDYVNIPTVEDTCETLTRIESTPENHLGLPSALRLEFAEGGHAGCGNATDHDGFWAPGPKCSDSLSDGDDLSQTSNDYVNMTGLDLENIQENRPRGAFQCCRDYENVPWVDTNESQLPTLEEVASSTVDHREPVWRTLSSVYHMAFQPSAQSEDSAMVHREEQSSEDSSDYETVLVAELEGRDWKQGPGTQHPSDEGTPGDLAGKLCEVVYPAGSLATETSDEDA
B7: the binding entry with CBL-OST (mouse) is given as “no binding”; with CBLB-OST (mouse), “binds”.
